Test results from publication PMC5891081.
Construct, isoform or probe ends are uncertain for at least one entry.

Chains of the proteins cited; added tags and fusions are not shown. Lines headed by an entry give the natural chain unless they say otherwise; changes in a name come on top.
UniProt P43351: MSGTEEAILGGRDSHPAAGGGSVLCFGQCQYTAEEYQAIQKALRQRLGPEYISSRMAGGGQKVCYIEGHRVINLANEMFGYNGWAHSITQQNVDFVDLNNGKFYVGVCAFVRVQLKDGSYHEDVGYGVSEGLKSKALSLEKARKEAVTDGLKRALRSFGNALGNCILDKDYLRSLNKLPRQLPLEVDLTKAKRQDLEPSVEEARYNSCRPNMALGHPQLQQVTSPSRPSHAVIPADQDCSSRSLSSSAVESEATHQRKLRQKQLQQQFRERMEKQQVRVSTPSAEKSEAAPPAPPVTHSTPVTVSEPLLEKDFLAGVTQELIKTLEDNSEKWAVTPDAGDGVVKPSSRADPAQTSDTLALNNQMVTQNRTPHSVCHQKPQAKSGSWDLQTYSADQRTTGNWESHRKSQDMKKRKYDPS

Target: RAD52 11xR (Homo sapiens) (UniProt P43351)
Assay: EMSA
Conditions: 10 uM nucleotides DNA, ssDNA binding similar to wild type; 16 uL reactions, Cy5-50-mer 10 uM in nucleotides; 5X buffer contains 0.1 M HEPES-NaOH pH 7.5 (20 mM final if 1X); remaining components; recombinant protein; protein details: C-terminal His6; label: 5'-Cy5; single-stranded DNA

## TCGCCATCAACTAACGATTCTGTCAAAAACTGACGCGTTGGATGAGGAGA [FX174-50-1 (oligo 1)]
  binding result: binds
